This is one part of the list.
Experiments:
Test in all cases: log2 fold change, soluble protein after heating vs DMSO (PISA); higher = thermal stabilisation; K562 cells, 10 uM, 30 min; active = over 0.2 and 3.5 SD of the protein, either way, in both replicates (recomputed)
[1] = compound: CC[C@@H]1C(=O)N(C)c2cnc(Nc3ccc(C(=O)NC4CCN(C)CC4)cc3OC)nc2N1C1CCCC1
In short: (§1)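 K562 cells at 2×10^6 cells/mL were given 10 μM compound for 30 min. Aliquots then went through 3 min of heating across 48°C-58°C, were pooled, and were extracted in PBS with 0.5% NP-40 at 4°C, and the supernatant after 21,000xg for 90 min was quantified by TMTpro 16plex LC-MS/MS with channel sums equalised. Thermal stability relative to control samples, from duplicates, is given as log2 fold change.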

By UniProt entry, the sequences of proteins in these tests, tags left out. Where a name states a change or a piece, a line headed by the entry shows the natural chain unless it says otherwise.
UniProt Q9GZR1: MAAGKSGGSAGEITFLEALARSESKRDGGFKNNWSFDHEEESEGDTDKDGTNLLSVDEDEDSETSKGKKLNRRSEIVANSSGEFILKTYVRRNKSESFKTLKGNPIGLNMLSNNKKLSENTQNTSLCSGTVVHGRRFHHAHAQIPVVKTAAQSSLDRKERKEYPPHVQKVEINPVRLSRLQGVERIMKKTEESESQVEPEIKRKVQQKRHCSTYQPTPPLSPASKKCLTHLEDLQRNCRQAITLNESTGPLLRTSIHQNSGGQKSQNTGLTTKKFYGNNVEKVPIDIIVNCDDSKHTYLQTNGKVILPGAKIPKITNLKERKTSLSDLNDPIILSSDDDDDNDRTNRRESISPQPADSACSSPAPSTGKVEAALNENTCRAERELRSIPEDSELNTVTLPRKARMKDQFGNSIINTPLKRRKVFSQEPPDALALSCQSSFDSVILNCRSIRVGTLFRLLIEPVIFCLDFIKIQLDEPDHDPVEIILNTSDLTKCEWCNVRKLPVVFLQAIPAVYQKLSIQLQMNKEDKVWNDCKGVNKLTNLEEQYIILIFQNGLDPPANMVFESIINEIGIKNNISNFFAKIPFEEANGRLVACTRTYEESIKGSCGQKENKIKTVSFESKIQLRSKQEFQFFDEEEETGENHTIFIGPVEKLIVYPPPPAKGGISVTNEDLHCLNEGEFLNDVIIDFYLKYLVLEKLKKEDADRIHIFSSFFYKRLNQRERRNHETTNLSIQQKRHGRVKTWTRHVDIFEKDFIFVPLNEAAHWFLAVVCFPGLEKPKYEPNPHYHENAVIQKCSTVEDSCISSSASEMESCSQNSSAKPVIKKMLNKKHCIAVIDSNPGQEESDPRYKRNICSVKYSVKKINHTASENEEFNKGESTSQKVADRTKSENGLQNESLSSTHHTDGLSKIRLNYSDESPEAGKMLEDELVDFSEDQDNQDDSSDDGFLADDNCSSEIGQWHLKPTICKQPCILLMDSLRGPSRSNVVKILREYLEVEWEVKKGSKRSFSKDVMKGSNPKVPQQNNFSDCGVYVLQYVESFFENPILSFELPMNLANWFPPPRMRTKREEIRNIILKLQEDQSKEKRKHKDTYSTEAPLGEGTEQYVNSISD
UniProt Q6P4A7: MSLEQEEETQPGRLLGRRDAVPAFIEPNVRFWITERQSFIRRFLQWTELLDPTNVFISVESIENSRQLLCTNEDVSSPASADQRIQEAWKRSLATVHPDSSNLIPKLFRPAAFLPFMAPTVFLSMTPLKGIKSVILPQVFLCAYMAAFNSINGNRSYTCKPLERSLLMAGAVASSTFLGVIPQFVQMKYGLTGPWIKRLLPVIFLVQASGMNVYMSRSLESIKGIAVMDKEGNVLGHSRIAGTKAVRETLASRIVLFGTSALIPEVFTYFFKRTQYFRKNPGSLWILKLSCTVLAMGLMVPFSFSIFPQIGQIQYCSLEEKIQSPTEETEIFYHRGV
UniProt Q99963: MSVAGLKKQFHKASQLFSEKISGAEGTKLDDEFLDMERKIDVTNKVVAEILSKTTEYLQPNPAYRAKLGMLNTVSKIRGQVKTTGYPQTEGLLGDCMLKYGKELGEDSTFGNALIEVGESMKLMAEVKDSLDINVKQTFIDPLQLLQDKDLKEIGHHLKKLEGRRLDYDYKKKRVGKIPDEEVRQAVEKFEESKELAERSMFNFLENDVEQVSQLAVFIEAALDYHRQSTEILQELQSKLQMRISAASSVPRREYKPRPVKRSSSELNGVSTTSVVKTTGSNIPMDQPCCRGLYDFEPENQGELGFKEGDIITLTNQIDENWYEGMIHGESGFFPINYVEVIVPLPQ
UniProt Q9NTG7: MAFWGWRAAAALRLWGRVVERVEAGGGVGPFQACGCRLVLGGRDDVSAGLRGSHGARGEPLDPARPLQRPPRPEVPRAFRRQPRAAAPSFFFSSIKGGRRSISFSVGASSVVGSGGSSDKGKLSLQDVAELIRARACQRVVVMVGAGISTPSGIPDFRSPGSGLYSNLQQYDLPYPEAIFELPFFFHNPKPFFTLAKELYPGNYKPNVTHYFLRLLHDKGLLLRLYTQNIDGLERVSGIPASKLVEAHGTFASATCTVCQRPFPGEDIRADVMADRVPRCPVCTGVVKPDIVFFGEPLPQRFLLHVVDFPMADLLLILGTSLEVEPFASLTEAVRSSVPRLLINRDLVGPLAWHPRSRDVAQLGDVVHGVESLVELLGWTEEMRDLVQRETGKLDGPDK
UniProt Q8IUQ4: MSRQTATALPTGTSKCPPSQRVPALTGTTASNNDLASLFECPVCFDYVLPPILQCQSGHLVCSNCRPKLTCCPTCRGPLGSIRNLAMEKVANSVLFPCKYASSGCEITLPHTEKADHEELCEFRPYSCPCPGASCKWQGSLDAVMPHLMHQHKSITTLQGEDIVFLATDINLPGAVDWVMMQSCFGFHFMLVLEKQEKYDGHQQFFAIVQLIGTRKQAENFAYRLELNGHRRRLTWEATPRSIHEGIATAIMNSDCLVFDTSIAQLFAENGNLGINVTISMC
UniProt Q86XK3: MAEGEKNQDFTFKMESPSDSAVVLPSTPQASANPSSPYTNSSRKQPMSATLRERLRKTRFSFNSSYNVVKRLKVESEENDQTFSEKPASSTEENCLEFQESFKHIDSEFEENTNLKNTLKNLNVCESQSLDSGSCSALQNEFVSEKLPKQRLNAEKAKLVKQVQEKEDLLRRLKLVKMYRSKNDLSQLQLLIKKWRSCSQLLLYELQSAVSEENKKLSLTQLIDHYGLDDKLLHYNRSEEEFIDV
UniProt Q9BRV8: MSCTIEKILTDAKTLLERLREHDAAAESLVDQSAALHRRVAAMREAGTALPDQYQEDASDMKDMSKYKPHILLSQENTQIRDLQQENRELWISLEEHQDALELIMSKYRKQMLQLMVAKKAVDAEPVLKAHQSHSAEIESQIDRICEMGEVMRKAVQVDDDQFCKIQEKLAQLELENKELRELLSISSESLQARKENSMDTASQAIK
UniProt Q16181: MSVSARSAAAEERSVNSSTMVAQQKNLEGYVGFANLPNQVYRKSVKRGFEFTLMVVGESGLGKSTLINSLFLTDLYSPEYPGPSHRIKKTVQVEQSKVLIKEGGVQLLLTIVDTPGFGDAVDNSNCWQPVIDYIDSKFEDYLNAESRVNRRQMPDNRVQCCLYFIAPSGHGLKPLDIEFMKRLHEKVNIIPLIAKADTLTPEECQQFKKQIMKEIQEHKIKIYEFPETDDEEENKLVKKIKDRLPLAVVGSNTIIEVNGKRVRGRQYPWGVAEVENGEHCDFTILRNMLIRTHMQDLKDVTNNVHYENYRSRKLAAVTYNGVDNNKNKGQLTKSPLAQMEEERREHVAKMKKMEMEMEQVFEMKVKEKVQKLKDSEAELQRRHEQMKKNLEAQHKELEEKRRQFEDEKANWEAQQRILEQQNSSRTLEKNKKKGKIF
UniProt Q9NP50: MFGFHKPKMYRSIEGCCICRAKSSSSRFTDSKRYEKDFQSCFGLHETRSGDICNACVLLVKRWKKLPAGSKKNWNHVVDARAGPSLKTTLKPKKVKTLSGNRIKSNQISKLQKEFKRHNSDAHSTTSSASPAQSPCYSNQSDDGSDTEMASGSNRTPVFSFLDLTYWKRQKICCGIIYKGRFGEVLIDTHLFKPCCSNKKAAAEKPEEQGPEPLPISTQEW
UniProt Q2M3G4: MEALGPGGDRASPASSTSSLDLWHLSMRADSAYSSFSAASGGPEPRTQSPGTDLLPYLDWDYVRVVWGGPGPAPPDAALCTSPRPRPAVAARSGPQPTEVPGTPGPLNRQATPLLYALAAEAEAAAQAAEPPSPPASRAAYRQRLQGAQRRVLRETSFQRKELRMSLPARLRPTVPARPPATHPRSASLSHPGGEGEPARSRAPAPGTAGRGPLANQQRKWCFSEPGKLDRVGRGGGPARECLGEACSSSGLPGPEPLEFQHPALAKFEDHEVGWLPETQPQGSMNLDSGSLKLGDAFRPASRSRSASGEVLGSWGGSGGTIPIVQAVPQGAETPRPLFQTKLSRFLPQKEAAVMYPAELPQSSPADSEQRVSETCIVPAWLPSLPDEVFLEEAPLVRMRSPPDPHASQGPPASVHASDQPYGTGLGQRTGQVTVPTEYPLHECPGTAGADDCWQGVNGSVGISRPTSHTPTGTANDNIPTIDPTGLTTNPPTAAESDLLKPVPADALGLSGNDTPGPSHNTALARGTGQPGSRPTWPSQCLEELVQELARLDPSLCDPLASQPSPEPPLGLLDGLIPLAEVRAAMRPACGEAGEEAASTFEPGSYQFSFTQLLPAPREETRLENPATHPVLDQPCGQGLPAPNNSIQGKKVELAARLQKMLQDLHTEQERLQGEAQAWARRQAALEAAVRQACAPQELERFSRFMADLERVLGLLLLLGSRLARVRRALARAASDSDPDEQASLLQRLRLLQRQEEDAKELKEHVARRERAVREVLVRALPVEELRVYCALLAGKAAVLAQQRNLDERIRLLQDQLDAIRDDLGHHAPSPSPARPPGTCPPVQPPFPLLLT
UniProt Q15464: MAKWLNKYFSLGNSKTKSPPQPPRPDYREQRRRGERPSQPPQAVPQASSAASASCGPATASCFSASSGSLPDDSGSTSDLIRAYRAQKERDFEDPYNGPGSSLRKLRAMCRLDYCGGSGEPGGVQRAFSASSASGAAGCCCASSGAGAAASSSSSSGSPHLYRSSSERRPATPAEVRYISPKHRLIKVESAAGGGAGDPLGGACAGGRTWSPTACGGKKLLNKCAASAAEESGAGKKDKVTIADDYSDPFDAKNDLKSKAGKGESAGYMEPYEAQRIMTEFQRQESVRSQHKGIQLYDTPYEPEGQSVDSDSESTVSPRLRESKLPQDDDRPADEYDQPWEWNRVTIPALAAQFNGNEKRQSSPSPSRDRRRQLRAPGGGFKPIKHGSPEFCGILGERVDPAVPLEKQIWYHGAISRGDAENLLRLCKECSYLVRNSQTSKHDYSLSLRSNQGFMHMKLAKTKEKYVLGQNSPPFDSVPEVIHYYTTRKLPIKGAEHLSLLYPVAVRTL
UniProt Q8WWX9, whole entry, looked up: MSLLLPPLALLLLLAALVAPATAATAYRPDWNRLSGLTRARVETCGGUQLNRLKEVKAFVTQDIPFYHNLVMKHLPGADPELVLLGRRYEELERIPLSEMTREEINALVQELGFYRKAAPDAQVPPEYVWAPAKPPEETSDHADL
UniProt Q9HAT2: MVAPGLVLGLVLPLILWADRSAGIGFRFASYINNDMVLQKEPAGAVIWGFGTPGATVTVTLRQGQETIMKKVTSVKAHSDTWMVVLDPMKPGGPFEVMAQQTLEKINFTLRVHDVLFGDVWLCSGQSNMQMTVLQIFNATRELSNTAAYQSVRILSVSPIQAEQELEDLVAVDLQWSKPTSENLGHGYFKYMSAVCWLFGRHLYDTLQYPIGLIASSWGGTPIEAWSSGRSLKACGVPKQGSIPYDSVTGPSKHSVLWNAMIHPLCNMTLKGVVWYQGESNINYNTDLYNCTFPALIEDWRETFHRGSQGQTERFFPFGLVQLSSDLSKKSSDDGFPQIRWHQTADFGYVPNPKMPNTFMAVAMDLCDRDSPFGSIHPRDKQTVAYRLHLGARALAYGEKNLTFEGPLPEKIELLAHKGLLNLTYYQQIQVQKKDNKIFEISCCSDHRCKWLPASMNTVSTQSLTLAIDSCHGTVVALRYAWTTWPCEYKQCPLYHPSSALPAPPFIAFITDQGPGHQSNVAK
UniProt Q6PI26: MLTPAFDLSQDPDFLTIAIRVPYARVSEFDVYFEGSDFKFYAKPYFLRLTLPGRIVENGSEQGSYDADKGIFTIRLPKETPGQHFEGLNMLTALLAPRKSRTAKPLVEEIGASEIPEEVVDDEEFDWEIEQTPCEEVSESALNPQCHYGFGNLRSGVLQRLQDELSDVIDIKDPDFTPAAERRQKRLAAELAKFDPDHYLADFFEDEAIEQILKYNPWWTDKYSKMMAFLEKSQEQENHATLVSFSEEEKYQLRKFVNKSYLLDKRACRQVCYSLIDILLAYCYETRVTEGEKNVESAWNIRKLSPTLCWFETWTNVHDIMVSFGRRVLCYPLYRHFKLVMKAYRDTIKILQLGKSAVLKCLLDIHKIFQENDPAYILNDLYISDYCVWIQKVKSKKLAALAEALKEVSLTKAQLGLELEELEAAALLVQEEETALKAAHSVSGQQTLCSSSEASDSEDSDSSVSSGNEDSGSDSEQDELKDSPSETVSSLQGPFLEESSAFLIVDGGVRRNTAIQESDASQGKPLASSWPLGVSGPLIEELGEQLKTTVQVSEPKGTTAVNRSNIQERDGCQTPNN
UniProt Q9H0F6: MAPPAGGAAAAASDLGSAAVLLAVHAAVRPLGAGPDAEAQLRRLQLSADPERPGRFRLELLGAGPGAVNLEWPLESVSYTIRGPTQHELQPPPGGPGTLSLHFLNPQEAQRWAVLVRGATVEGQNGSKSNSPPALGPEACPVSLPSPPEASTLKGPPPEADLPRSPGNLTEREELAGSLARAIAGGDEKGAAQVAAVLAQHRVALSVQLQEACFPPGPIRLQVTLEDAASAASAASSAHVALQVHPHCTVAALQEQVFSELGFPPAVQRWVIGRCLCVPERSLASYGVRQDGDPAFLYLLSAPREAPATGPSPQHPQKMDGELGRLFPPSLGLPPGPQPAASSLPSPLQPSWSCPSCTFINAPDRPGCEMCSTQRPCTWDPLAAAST

volasertib = compound: CC[C@@H]1C(=O)N(C)c2cnc(Nc3ccc(C(=O)N[C@H]4CC[C@H](N5CCN(CC6CC6)CC5)CC4)cc3OC)nc2N1C(C)C [volasertib]
In short: as §1

[2] = compound: CC[C@H](C)N1C=C(C2=C(C=C(C=C21)C3=CN=C(C=C3)N4CCNCC4)C(=O)NCC5=C(C=C(NC5=O)C)C)C
In short: as §1

[3] = compound: CN(C)CC(=O)Nc1ccc2[nH]c(=O)c3ccccc3c2c1
In short: as §1

rosiglitazone = compound: CN(CCOC1=CC=C(C=C1)C[C@H]2C(=O)NC(=O)S2)C3=CC=CC=N3 (racemic) [rosiglitazone]
In short: as §1

[4] = compound: CN1C2=C(C3=C1C(=O)N(N=C3)CC4=CC(=CC=C4)N)SC(=C2)S(=O)C
In short: as §1

saracatinib = compound: CN1CCN(CCOc2cc(OC3CCOCC3)c3c(Nc4c(Cl)ccc5c4OCO5)ncnc3c2)CC1 [saracatinib]
In short: as §1

alvocidib = compound: CN1CC[C@H](c2c(O)cc(O)c3c(=O)cc(-c4ccccc4Cl)oc23)[C@H](O)C1 [alvocidib]
In short: as §1

Tubastatin A = compound: CN1CCc2c(c3ccccc3n2Cc2ccc(C(=O)NO)cc2)C1 [Tubastatin A]
In short: as §1

defactinib = compound: CNC(=O)c1ccc(Nc2ncc(C(F)(F)F)c(NCc3nccnc3N(C)S(C)(=O)=O)n2)cc1 [defactinib]
In short: as §1

rucaparib = compound: CNCc1ccc(-c2[nH]c3cc(F)cc4c3c2CCNC4=O)cc1 [rucaparib]
In short: as §1

[5] = compound: CNc1nc(-c2ccc3c(N)n[nH]c3c2)cc(N2C[C@@H](C(=O)NC3CCCCC3)CC[C@H]2C)n1
In short: as §1

encorafenib = compound: COC(=O)N[C@@H](C)CNc1nccc(-c2cn(C(C)C)nc2-c2cc(Cl)cc(NS(C)(=O)=O)c2F)n1 [encorafenib]
In short: as §1

[6] = compound: COC(=O)[C@H](CCSC)NC(=O)C1=C(C=C(C=C1)NC[C@H](CS)N)C2=CC=CC=C2
In short: as §1

sotrastaurin = compound: CN1CCN(c2nc(C3=C(c4c[nH]c5ccccc45)C(=O)NC3=O)c3ccccc3n2)CC1 [sotrastaurin]
In short: as §1

epoxomicin = compound: CC[C@H](C)[C@@H](C(=O)N[C@@H]([C@@H](C)O)C(=O)N[C@@H](CC(C)C)C(=O)[C@]1(CO1)C)NC(=O)[C@H]([C@@H](C)CC)N(C)C(=O)C [epoxomicin]
In short: as §1

[7] = compound: CCn1c(C(=O)N(C2CC2)C2CC2)cc2c3c(ncn3C)c(Nc3cc(C)n(C)n3)nc21
In short: as §1

[8] = compound: CCn1cc(-c2ccnc3[nH]c(-c4cccc(CN(C)C)c4)cc23)c(-c2ccc(NC(=O)N(C)C)cc2)n1
In short: as §1

[9] = compound: CN1CCC(CNc2ccc3ncc(-c4cccc(OC(F)(F)F)c4)n3n2)CC1
In short: as §1

[10] = compound: CNC(=O)C1=CC=CC=C1NC2=NC(=NC=C2Cl)NC3=C(C=C(C=C3)N4CCOCC4)OC
In short: as §1

Measured: log2 fold change

SF1 (UniProt H7C0N4)
inactive: [1] 0.087 | volasertib 0.249 | [2] 0.065 | [3] -0.03 | rosiglitazone -0.048 | [4] -0.071 | saracatinib 0.165 | alvocidib 0.013 | Tubastatin A -0.035 | defactinib -0.056 | rucaparib 0.047 | [5] -0.018 | encorafenib -0.044 | [6] -0.039

SERPINB5 (UniProt P36952)
inactive: [1] 1.46 | [3] 0.024 | rosiglitazone 0.261 | [4] 1.42 | saracatinib -0.079 | sotrastaurin 0.172 | Tubastatin A -0.607 | defactinib -0.154 | rucaparib -0.313 | [5] -0.109 | encorafenib -0.356 | [6] -0.582

SERF2 (UniProt P84101)
inactive: [1] -0.056 | [2] -0.079 | epoxomicin 0.12 | [7] -0.017 | [8] 0.075 | [3] 0.017 | rosiglitazone -0.065 | [4] -0.076 | [9] -0.13 | saracatinib 0.142 | sotrastaurin 0.033 | alvocidib 0.152 | Tubastatin A 0.066 | [10] -0.053 | defactinib 0.004 | rucaparib -0.027 | [5] 0.029 | encorafenib -0.042 | [6] 0.073

SIK2 (UniProt Q9H0K1)
inactive: [1] 0.47 | volasertib -0.117 | [7] -0.151 | rosiglitazone -0.192 | [10] -0.553 | rucaparib 0.19 | encorafenib 0.456

SENP6 (UniProt Q9GZR1)
inactive: [1] -0.086 | volasertib -0.07 | [2] -0.044 | epoxomicin -0.039 | [8] -0.022 | [3] -0.017 | [4] -0.014 | [9] -0.038 | saracatinib 0.028 | sotrastaurin -0.008 | Tubastatin A 0.063 | [10] -0.018 | defactinib -0.131 | rucaparib 0.003 | [5] -0.034 | encorafenib 0.016 | [6] 0

SFXN4 isoform 3 (UniProt Q6P4A7)
inactive: [1] 0.15 | volasertib -0.317 | [7] -0.211 | [8] -0.039 | [3] -0.031 | rosiglitazone 0.035 | [4] 0.115 | [9] 0.067 | saracatinib 0.017 | sotrastaurin -0.059 | alvocidib 0.024 | Tubastatin A 0.041 | [10] -0.199 | defactinib -0.066 | rucaparib -0.092 | [5] -0.107 | encorafenib 0.156 | [6] -0.04

SH3GL3 isoform 3 (UniProt Q99963)
inactive: [1] -0.063 | volasertib -0.009 | [3] 0.046 | sotrastaurin -0.091 | Tubastatin A 0.196 | defactinib -0.168 | rucaparib -0.087 | encorafenib 0.084 | [6] 0.02

SIRT3 (UniProt Q9NTG7)
inactive: [1] -0.002 | [7] -0.024 | [8] -0.102 | [3] 0.025 | [4] -0.089 | [9] 0.059 | saracatinib -0.075 | [10] 0.081 | defactinib -0.019 | rucaparib -0.048 | [5] 0.322 | encorafenib -0.068 | [6] -0.009

SEMG2 (UniProt Q02383)
inactive: [1] 0.043 | [2] 0.15 | epoxomicin 0.06 | [8] 0.035 | [9] 0.058 | sotrastaurin -0.016 | Tubastatin A 0.025 | rucaparib -0.033 | encorafenib -0.011

SERPING1 isoform 3 (UniProt P05155)
inactive: [1] 0.03 | [7] -0.248 | [4] 0.331 | saracatinib 0.156 | alvocidib 0.077 | Tubastatin A -0.074 | [10] 0.032 | rucaparib -0.064 | [5] -0.016 | encorafenib -0.041

SIAH1 isoform 2 (UniProt Q8IUQ4)
inactive: [1] 0.073 | volasertib 0.142 | epoxomicin 0.306 | [7] 0.158 | [8] -0.063 | [3] 0.028 | rosiglitazone 0.379 | [4] 0.07 | [9] 0.073 | saracatinib 0.118 | sotrastaurin 0.018 | alvocidib -0.046 | Tubastatin A 0.152 | [10] -0.033 | defactinib -0.085 | rucaparib -0.09 | [5] -0.118 | encorafenib -0.045 | [6] -0.103

SH2D3A (UniProt Q9BRG2)
inactive: [2] 0.036 | [7] -0.196 | [3] -0.074 | [10] -0.269 | defactinib 0.011 | [6] 0.057

SECISBP2 (UniProt Q96T21)
inactive: [2] -0.443 | [8] 0.116 | [9] -0.195 | Tubastatin A 0.382

SFR1 isoform 2 (UniProt Q86XK3)
inactive: epoxomicin 0.181 | [3] 0.074 | rosiglitazone -0.02 | sotrastaurin 0.166 | alvocidib 0.019 | defactinib -0.225 | [6] 0.12

SIMC1 (UniProt Q8NDZ2)
inactive: [7] -0.06 | [10] -0.036

SESN1 isoform 2 (UniProt Q9Y6P5)
inactive: Tubastatin A -0.118

SECISBP2L (UniProt Q93073)
inactive: [3] -0.018 | defactinib -0.002 | [6] 0.068

SELENOP (UniProt P49908)
inactive: [7] 0.035 | rosiglitazone 0.097 | sotrastaurin -0.11 | [10] -0.026

SETD2 (UniProt Q9BYW2)
inactive: [8] -0.478 | [9] 0.175 | Tubastatin A 0.145

SIKE1 (UniProt Q9BRV8)
inactive: volasertib -0.123 | [2] 0.174 | epoxomicin 0.055 | [7] 0.002 | [8] -0.054 | [3] -0.004 | rosiglitazone -0.026 | [4] 0.02 | [9] -0.006 | saracatinib -0.025 | sotrastaurin -0.075 | alvocidib -0.067 | Tubastatin A 0.03 | [10] -0.047 | defactinib -0.067 | [5] 0.018 | [6] -0.028

SEPTIN7 isoform 2 (UniProt Q16181)
inactive: [7] -0.037 | Tubastatin A -0.058 | [10] -0.095

SEPTIN5 (UniProt G3XAH0)
inactive: volasertib 0.097 | [2] 0.074 | epoxomicin 0.049 | [8] 0.211 | [3] 0.011 | [4] -0.079 | [9] 0.075 | saracatinib 0.045 | sotrastaurin 0.023 | Tubastatin A -0.038 | [10] 0.042 | defactinib -0.023 | [5] 0.032 | [6] 0.028

SHANK2 isoform 3 (UniProt Q9UPX8)
inactive: [2] -0.053 | epoxomicin -0.234 | sotrastaurin 0.015

SINHCAF (UniProt Q9NP50)
inactive: epoxomicin 0.484 | sotrastaurin 0.838

SHROOM1 (UniProt Q2M3G4)
inactive: volasertib -0.199 | epoxomicin 0.13 | [7] -0.113 | rosiglitazone -0.498 | alvocidib -0.273 | [10] -0.079

SENP8 (UniProt Q96LD8)
inactive: [2] 0.056

SKA2 (UniProt Q8WVK7)
inactive: [8] 0.053 | [9] 0.082

SERPINB6, A0A2R8Y7E5
inactive: epoxomicin 0.037 | [3] 0.055 | rosiglitazone -0.021 | defactinib 0.056 | [6] -0.022

SERPIND1 (UniProt P05546)
inactive: [2] 0.161 | epoxomicin -0.482 | [7] 0.052 | [8] 0.143 | [9] 0.306 | alvocidib 0.129 | [10] 0.034

SFXN1 (UniProt D6RDG7)
inactive: Tubastatin A -0.018

SHFL (UniProt Q9NUL5)
inactive: volasertib 0.045 | [2] -0.008 | epoxomicin -0.127 | [8] 0.192 | rosiglitazone 0.015 | [9] 0.242 | sotrastaurin -0.023 | Tubastatin A 0.147

SHB (UniProt Q15464)
inactive: volasertib 0.174 | [8] -0.202 | rosiglitazone -0.057 | [4] -0.002 | [9] 0.108 | saracatinib -0.072 | sotrastaurin -0.072 | alvocidib -0.024 | Tubastatin A -0.013 | [5] -0.012

SEMA7A (UniProt O75326)
inactive: epoxomicin 0.164 | [8] -0.101 | [3] 0.023 | [9] -0.234 | defactinib -0.033 | [6] 0.116

SGSH (UniProt P51688)
inactive: [2] 0.28 | [7] -0.129 | alvocidib -0.034 | [10] 0.008

SELENOM (UniProt Q8WWX9)
inactive: [2] 0.166 | epoxomicin 0.056 | [7] 0.011 | [10] 0.115

Fetched one by one from the entries so far (three):
SFXN4 isoform 3 (UniProt Q6P4A7)
inactive: [1] 0.15 | volasertib -0.317 | [7] -0.211 | [8] -0.039 | [3] -0.031 | rosiglitazone 0.035 | [4] 0.115 | [9] 0.067 | saracatinib 0.017 | sotrastaurin -0.059 | alvocidib 0.024 | Tubastatin A 0.041 | [10] -0.199 | defactinib -0.066 | rucaparib -0.092 | [5] -0.107 | encorafenib 0.156 | [6] -0.04

SERPINB6, A0A2R8Y7E5
inactive: epoxomicin 0.037 | [3] 0.055 | rosiglitazone -0.021 | defactinib 0.056 | [6] -0.022

SHANK2 isoform 3 (UniProt Q9UPX8)
inactive: [2] -0.053 | epoxomicin -0.234 | sotrastaurin 0.015

(listing goes on)

SEMG1 (UniProt P04279)
inactive: alvocidib 2.77

SIAE (UniProt Q9HAT2)
inactive: volasertib -0.022 | [2] -0.132 | epoxomicin -0.072 | [7] 0.003 | [8] 0.059 | [3] -0.097 | rosiglitazone 0.127 | [4] 0.023 | [9] -0.205 | saracatinib -0.195 | sotrastaurin -0.248 | alvocidib 0.028 | Tubastatin A 0.004 | [10] -0.052 | defactinib 0 | [5] -0.086 | [6] 0.009

SELENON (UniProt Q9NZV5)
inactive: [3] -0.016 | sotrastaurin 0.126 | defactinib -0.027 | [6] -0.03

SHROOM4 (UniProt Q9ULL8)
inactive: volasertib 0.05 | [8] 0.077 | [3] -0.148 | [4] 0.17 | [9] 0.415 | saracatinib -0.067 | alvocidib 0.475 | defactinib 0.504 | [5] -0.116 | [6] 0.104

SH2B1 (UniProt Q9NRF2)
inactive: [3] -0.009 | defactinib -0.011 | [6] 0.002

SIVA1 (UniProt O15304)
inactive: epoxomicin 0.269

SHQ1 (UniProt Q6PI26)
inactive: [3] 0.061 | [4] 0.106 | saracatinib -0.105 | defactinib 0.019 | [5] 0.092 | [6] 0.162

SHARPIN (UniProt Q9H0F6)
inactive: [2] -0.062

SKAP2 (UniProt O75563)
inactive: volasertib 0.373 | [7] 0.128 | [4] -0.109 | saracatinib -0.037 | Tubastatin A 0.043 | [10] -0.078 | [5] -0.039

Source: the supplement of paper PMC10849652
